Patent publication US6605443
Results are given in words; binding and its absence hold for the method and conditions named. Binding seen in cells or lysates may run through a third protein. Some entries that bind do so weakly or less than the wild type. For some assays here: Sequences can lack the tags named with a protein.

By UniProt entry, the sequences of proteins in these tests, tags left out. Where a name states a change or a piece, a line headed by the entry shows the natural chain unless it says otherwise. Residues count along the entry.
UniProt P36894, residues 24-532: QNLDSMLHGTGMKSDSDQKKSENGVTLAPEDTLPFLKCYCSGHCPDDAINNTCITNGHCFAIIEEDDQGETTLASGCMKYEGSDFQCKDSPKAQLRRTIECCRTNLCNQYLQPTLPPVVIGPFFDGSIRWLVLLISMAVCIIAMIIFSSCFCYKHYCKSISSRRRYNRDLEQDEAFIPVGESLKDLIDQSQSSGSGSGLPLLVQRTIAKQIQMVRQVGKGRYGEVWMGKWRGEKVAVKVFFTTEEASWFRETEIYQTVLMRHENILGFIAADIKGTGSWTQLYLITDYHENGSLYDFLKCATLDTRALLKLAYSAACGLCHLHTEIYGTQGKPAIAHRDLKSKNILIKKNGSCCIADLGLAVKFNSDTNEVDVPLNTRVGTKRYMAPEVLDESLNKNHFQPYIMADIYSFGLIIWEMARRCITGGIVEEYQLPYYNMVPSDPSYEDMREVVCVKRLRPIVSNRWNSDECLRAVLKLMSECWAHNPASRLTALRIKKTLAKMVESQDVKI
UniProt O00238, residues 14-502: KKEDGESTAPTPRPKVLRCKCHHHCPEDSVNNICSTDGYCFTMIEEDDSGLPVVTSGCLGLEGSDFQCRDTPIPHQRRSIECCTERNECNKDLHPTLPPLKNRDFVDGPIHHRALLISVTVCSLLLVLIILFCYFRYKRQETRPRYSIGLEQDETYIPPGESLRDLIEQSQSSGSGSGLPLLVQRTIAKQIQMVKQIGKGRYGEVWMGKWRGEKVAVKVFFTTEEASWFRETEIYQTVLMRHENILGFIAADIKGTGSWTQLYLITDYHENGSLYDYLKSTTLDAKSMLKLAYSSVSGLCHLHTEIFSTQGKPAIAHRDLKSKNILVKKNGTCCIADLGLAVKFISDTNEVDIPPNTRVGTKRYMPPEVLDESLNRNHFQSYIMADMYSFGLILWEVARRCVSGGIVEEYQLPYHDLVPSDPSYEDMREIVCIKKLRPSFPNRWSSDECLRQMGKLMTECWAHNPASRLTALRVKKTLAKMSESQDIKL
UniProt P36897: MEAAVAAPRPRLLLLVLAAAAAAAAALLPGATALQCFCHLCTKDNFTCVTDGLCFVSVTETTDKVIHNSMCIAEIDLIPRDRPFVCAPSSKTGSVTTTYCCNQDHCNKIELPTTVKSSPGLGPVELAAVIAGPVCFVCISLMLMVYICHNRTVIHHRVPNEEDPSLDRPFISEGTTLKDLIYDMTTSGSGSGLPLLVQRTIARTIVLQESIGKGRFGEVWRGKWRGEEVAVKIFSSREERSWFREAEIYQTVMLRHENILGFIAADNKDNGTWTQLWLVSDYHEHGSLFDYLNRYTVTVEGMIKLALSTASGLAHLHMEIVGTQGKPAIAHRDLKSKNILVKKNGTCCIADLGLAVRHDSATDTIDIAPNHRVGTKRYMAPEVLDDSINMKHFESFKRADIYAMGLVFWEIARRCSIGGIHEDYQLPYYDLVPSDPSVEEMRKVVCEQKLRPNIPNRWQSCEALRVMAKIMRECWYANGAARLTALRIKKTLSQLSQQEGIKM
UniProt O35253: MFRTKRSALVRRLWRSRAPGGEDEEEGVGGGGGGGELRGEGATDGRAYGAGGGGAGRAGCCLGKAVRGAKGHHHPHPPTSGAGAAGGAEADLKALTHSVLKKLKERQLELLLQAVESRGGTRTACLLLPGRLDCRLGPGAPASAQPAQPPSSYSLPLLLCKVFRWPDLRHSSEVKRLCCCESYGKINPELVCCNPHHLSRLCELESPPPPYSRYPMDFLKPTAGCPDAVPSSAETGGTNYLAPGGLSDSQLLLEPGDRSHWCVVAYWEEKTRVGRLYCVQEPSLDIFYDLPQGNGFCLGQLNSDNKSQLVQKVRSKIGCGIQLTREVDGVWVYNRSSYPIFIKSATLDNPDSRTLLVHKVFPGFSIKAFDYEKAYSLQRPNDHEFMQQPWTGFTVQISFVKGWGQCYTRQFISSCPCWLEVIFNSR

Key:
[1] = target: BMPR-IA tagged at C-terminus with HA epitope (co-expressed with BMPR-II) (UniProt P36894); assay: co-immunoprecipitation, cultured mammalian cells
[2] = target: BMPR-IB tagged at C-terminus with HA epitope (co-expressed with BMPR-II) (UniProt O00238); assay: co-immunoprecipitation, cultured mammalian cells
[3] = target: TGF-β receptor complex (wild-type TβR-I in complex with wild-type TβR-II) (UniProt P36897); assay: co-immunoprecipitation with Flag antiserum of 125I-TGF-β1 affinity-labeled receptors, COS cells
[4] = target: BMPR-IA tagged at C-terminus with HA epitope (co-expressed with BMPR-II) (UniProt P36894); assay: co-immunoprecipitation with Flag antibody of 125I-BMP-7 affinity-labeled receptors, COS cells
[5] = target: T1, ActR-I tagged at C-terminus with HA epitope (co-expressed with BMPR-II) (UniProt Q04771); assay: as above
T1 sequence (looked up): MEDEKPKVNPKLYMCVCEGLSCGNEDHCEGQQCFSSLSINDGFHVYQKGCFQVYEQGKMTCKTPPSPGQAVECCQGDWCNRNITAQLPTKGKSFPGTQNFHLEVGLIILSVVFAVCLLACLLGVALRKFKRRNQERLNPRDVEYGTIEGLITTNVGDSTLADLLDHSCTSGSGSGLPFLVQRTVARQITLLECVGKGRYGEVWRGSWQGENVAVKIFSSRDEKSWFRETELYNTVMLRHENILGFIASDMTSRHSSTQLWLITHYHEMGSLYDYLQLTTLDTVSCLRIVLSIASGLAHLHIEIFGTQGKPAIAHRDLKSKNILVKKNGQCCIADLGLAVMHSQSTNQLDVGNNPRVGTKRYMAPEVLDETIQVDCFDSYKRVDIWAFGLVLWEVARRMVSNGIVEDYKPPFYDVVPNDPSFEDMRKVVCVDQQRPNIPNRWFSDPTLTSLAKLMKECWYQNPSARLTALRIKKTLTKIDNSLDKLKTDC

[6] = target: BMPR-IB tagged at C-terminus with HA epitope (co-expressed with BMPR-II) (UniProt O00238); assay: as above
[7] = target: BMPR-IA tagged at C-terminus with HA epitope (co-expressed with BMPR-II) (UniProt P36894); assay: co-immunoprecipitation of affinity-labeled receptors, COS cells
[8] = target: T1, ActR-I tagged at C-terminus with HA epitope (co-expressed with BMPR-II); assay: as above
[9] = target: BMPR-IB tagged at C-terminus with HA epitope (co-expressed with BMPR-II) (UniProt O00238); assay: as above
[10] = target: TGF-β receptor complex (wild-type TβR-I in complex with wild-type TβR-II) (UniProt P36897); assay: as above
[11] = target: BMPR-IA tagged at C-terminus with HA epitope (co-expressed with BMPR-II) (UniProt P36894); assay: summary of the co-immunoprecipitation examples
[12] = target: BMPR-IB tagged at C-terminus with HA epitope (co-expressed with BMPR-II) (UniProt O00238); assay: summary of the co-immunoprecipitation examples
[13] = target: TGF-β receptor complex (wild-type TβR-I in complex with wild-type TβR-II) (UniProt P36897); assay: co-immunoprecipitation of 125I-TGF-β1 affinity-labeled receptors, COS cells

Measured: binding

N-terminally Flag-tagged Smad7 (F-Smad7) (from UniProt O35253 1-426)
not listed: [13]
binds: all other assays above

N-terminally Flag tagged mouse Smad7 C-terminal domain (amino acids 204-426 of mSmad7) (from UniProt O35253 204-426)
binds: [13] | [10]
